Assay: general procedure: solution-phase peptide synthesis; HATU / N-methylmorpholine
Conditions: trifluoroacetate; for step yield: late stage modification step; for cyclisation yield: cyclisation step

| Substance | step yield | cyclisation yield (run 1) | cyclisation yield (run 2) |
| --- | --- | --- | --- |
| N^2-(Benzyloxycarbonyl)-N^3-{N^2.1-tert-butoxycarbonyl[(3R)-3-hydroxy-L-leucyl]-L-leucyl-D-arginyl-L-isoleucyl-L-allothreonyl-glycyl-[(3S)-3-hydroxy-L-asparaginyl]-L-seryl}-(3R)-3-amino-L-phenylalanine trifluoroacetate | 77% | – | – |
| N^2-(Benzyloxycarbonyl)-N^3-{[(3R)-3-hydroxy-L-leucyl]-L-leucyl-D-arginyl-L-isoleucyl-L-allothreonyl-glycyl-[(3S)-3-hydroxy-L-asparaginyl]-L-seryl}-(3R)-3-amino-L-phenylalanine pentafluorophenyl ester bishydrochloride | 96% | – | – |
| N^2.1-(Benzyloxycarbonyl)-[(3R-3-amino-L-phenylalanyl)]-[(3R)-3-hydroxy-L-leucyl]-L-leucyl-D-arginyl-L-isoleucyl-L-allothreonyl-glycyl-[(3S)-3-hydroxy-L-asparaginyl]-L-serine C^1.9—N^3.1-lactam trifluoroacetate | – | 33% | 70% |
| N^2.1-tert-Butoxycarbonyl[(3R)-3-hydroxy-L-leucyl]-L-leucyl-D-arginyl-L-isoleucyl-L-allothreonyl-glycyl-[(3S)-3-hydroxy-L-asparaginyl]-L-serine trifluoroacetate | 70% | – | – |

Source: patent US7718611B2 (priority 2004, dated 2010)
